Experimental data published in US9540392B2, “Thienopyrimidines” (BAYER PHARMA AKTIENGESELLSCHAFT, priority 2012, dated 2017).

By UniProt entry, the sequences of proteins in these tests, tags left out. Residues count along the entry.
UniProt Q9BUB5, 1-424 isoform Q9BUB5-2 T344D: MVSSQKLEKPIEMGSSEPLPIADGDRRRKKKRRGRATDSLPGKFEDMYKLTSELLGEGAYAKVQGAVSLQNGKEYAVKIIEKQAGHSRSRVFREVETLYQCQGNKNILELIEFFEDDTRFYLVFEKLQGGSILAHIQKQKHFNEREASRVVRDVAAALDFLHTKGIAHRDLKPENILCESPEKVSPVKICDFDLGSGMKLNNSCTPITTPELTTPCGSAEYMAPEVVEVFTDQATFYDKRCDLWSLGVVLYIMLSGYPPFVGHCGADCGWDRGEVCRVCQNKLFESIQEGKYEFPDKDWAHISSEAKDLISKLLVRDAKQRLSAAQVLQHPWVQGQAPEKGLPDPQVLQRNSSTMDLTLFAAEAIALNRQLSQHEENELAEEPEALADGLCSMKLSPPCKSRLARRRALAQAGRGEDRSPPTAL

Molecular target: T1, human full-length MKNK1 (Homo sapiens, UniProt Q9BUB5, T385D)
T1 construct: GST (N); purchased Carna Biosciences 02-145; host or cells: insect cells (baculovirus expression system)
Assay: MKNK1 kinase high ATP assay (TR-FRET)
Type: biochemical
Conditions: 2 mM ATP, after preincubation with MKNK1
Protocol: MKNK1-inhibitory activity at high ATP of compounds of the present invention after their preincubation with MKNK1 was quantified employing the TR-FRET-based MKNK1 high ATP assay as described in the following paragraphs.
As substrate for the kinase reaction the biotinylated peptide biotin-Ahx-[…] (C-terminus in amide form) was used, which can be purchased e.g. from the company Biosyntan (Berlin-Buch, Germany). […]
The resulting mixture was incubated for 1 h at 22° C. to allow the formation of complex between the phosphorylated biotinylated peptide and the detection reagents. Subsequently the amount of phosphorylated substrate was evaluated by measurement of the resonance energy transfer from the Eu-chelate to the streptavidine-XL. Therefore, the fluorescence emissions at 620 nm and 665 nm after excitation at 350 nm were measured in a TR-FRET reader, e.g. a Rubystar (BMG Labtechnologies, Offenburg, Germany) or a Viewlux (Perkin-Elmer). […]

- IC50: 0.1 nM
SMILES: CCOc1cc2[nH]ncc2cc1Nc1ncnc2sc3c(c12)CCC(C(=O)N1CC(C#N)C1)C3 (racemic) [Example 232, (RS)-1-({4-[(6-Ethoxy-1H-indazol-5-yl)amino]-5,6,7,8-tetrahydro[1]benzothieno[2,3-d]pyrimidin-7-yl}carbonyl)azetidine-3-carbonitrile]
